This is an account of results in paper doi:10.1101/2025.10.27.684818.

Holding throughout (assay): affinity purification with mass spectrometry
Test [1] concerns the target T1, LEA5-GFP (pLEA5:LEA5-GFP translational reporter) (Arabidopsis thaliana (Col-0)) (UniProt P42759).
T1 sequence: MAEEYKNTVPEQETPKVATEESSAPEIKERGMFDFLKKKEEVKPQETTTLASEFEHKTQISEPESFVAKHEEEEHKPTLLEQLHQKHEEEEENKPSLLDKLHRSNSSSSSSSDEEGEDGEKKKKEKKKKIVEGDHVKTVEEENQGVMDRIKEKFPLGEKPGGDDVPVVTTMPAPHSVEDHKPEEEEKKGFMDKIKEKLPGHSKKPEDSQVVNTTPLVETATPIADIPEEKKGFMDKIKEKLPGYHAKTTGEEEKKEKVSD

For test [2], the target named is T1, LEA5-GFP (pLEA5:LEA5-GFP translational reporter) (Arabidopsis thaliana (Col-0)). The source holds these as a separate data set.
Test [3] has as its target T2, LEA4-GFP (pLEA4:LEA4-GFP translational reporter) (Arabidopsis thaliana (Col-0)) (UniProt P31168).
T2 sequence: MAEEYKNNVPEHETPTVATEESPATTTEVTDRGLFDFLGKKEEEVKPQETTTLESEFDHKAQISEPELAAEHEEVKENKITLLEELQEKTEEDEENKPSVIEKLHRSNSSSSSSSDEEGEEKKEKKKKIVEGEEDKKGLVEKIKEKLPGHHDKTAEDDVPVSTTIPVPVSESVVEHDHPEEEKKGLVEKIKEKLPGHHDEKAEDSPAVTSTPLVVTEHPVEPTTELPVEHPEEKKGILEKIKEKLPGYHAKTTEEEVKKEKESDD

Test [4] has as its target T3, LEA10-GFP (pLEA10:LEA10-GFP translational reporter) (Arabidopsis thaliana (Col-0)) (UniProt P42763).
T3 sequence: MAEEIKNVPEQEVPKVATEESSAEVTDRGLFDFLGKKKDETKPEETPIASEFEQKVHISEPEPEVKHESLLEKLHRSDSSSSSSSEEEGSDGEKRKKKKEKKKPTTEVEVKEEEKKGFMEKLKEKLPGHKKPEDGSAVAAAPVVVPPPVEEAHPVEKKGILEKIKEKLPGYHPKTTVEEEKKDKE

Where two headings read alike, the source gives them in different places. Results are given in words; binding and its absence hold for the method and conditions named. In cells and extracts the contact can be indirect. These calls come from enrichment with a bait or labelling near it, and not all partners need be listed. Where a sequence is shown, tags or fusion partners need not be part of it.

REMORIN1.2, endogenous: the binding result in test [1] was “binds”. Same read-out and setting: in the case of HSP70-interacting protein 1, endogenous it was “binds”.

B1: REMORIN family protein REM1.3, endogenous (protein, UniProt O80837 1-190)
chain: MAEEQKTSKVDVESPAVLAPAKEPTPAPVEVADEKIHNPPPVESKALAVVEKPIEEHTPKKASSGSADRDVILADLEKEKKTSFIKAWEESEKSKAENRAQKKISDVHAWENSKKAAVEAQLRKIEEKLEKKKAQYGEKMKNKVAAIHKLAEEKRAMVEAKKGEELLKAEEMGAKYRATGVVPKATCGCF
As to B1, the binding result in test [2], in test [3] and in test [4] was “binds” each time.

B2: PLASMA MEMBRANE … PROTEIN PIP2A, endogenous (protein, UniProt P43286 1-287)
chain: MAKDVEAVPGEGFQTRDYQDPPPAPFIDGAELKKWSFYRAVIAEFVATLLFLYITVLTVIGYKIQSDTDAGGVDCGGVGILGIAWAFGGMIFILVYCTAGISGGHINPAVTFGLFLARKVSLPRALLYIIAQCLGAICGVGFVKAFQSSYYTRYGGGANSLADGYSTGTGLAAEIIGTFVLVYTVFSATDPKRSARDSHVPVLAPLPIGFAVFMVHLATIPITGTGINPARSFGAAVIYNKSKPWDDHWIFWVGPFIGAAIAAFYHQFVLRASGSKSLGSFRSAANV
As to B2, the binding result in test [2], in test [3] and in test [4] was “binds” throughout.

B3: PHOSPHOLIPASE D ALPHA 1 (PLDα1), endogenous (enzyme, UniProt Q38882 1-810)
chain: MAQHLLHGTLHATIYEVDALHGGGVRQGFLGKILANVEETIGVGKGETQLYATIDLQKARVGRTRKIKNEPKNPKWYESFHIYCAHLASDIIFTVKDDNPIGATLIGRAYIPVDQVINGEEVDQWVEILDNDRNPIQGGSKIHVKLQYFHVEEDRNWNMGIKSAKFPGVPYTFFSQRQGCKVSLYQDAHIPDNFVPRIPLAGGKNYEPQRCWEDIFDAISNAKHLIYITGWSVYAEIALVRDSRRPKPGGDVTIGELLKKKASEGVRVLLLVWDDRTSVDVLKKDGLMATHDEETENFFRGSDVHCILCPRNPDDGGSIVQSLQISTMFTHHQKIVVVDSEMPSRGGSEMRRIVSFVGGIDLCDGRYDTPFHSLFRTLDTVHHDDFHQPNFTGAAITKGGPREPWHDIHSRLEGPIAWDVMYNFEQRWSKQGGKDILVKLRDLSDIIITPSPVMFQEDHDVWNVQLFRSIDGGAAAGFPESPEAAAEAGLVSGKDNIIDRSIQDAYIHAIRRAKDFIYVENQYFLGSSFAWAADGITPEDINALHLIPKELSLKIVSKIEKGEKFRVYVVVPMWPEGLPESGSVQAILDWQRRTMEMMYKDVIQALRAQGLEEDPRNYLTFFCLGNREVKKDGEYEPAEKPDPDTDYMRAQEARRFMIYVHTKMMIVDDEYIIIGSANINQRSMDGARDSEIAMGGYQPHHLSHRQPARGQIHGFRMSLWYEHLGMLDETFLDPSSLECIEKVNRISDKYWDFYSSESLEHDLPGHLLRYPIGVASEGDITELPGFEFFPDTKARILGTKSDYLPPILTT
As to B3, the binding result in test [2] is “binds”.

B4: PLASMA MEMBRANE ASSOCIATED CATION-BINDING PROTEIN 1, endogenous (protein, UniProt Q96262 1-225)
chain: MGYWNSKVVPKFKKLFEKNSAKKAAAAEATKTFDESKETINKEIEEKKTELQPKVVETYEATSAEVKALVRDPKVAGLKKNSAAVQKYLEELVKIEFPGSKAVSEASSSFGAGYVAGPVTFIFEKVSVFLPEEVKTKEIPVEEVKAEEPAKTEEPAKTEGTSGEKEEIVEETKKGETPETAVVEEKKPEVEEKKEEATPAPAVVETPVKEPETTTTAPVAEPPKP
As to B4, the binding entry in test [2], in test [3] and in test [4] was “binds” throughout.

B5: LEA4 (COR47), endogenous (protein, UniProt P31168 1-265)
chain: MAEEYKNNVPEHETPTVATEESPATTTEVTDRGLFDFLGKKEEEVKPQETTTLESEFDHKAQISEPELAAEHEEVKENKITLLEELQEKTEEDEENKPSVIEKLHRSNSSSSSSSDEEGEEKKEKKKKIVEGEEDKKGLVEKIKEKLPGHHDKTAEDDVPVSTTIPVPVSESVVEHDHPEEEKKGLVEKIKEKLPGHHDEKAEDSPAVTSTPLVVTEHPVEPTTELPVEHPEEKKGILEKIKEKLPGYHAKTTEEEVKKEKESDD
For B5, the binding result in test [2] and in test [4] was “binds” each time.

B6: LEA10 (ERD14), endogenous (protein, UniProt P42763 1-185)
chain: MAEEIKNVPEQEVPKVATEESSAEVTDRGLFDFLGKKKDETKPEETPIASEFEQKVHISEPEPEVKHESLLEKLHRSDSSSSSSSEEEGSDGEKRKKKKEKKKPTTEVEVKEEEKKGFMEKLKEKLPGHKKPEDGSAVAAAPVVVPPPVEEAHPVEKKGILEKIKEKLPGYHPKTTVEEEKKDKE
Take B6: the binding result in test [2] and in test [3] was “binds” throughout.

B7: copper chaperone AT3G56240, endogenous (protein, UniProt O82089 1-121)
chain: MAQTVVLKVGMSCQGCVGAVNRVLGKMEGVESFDIDIKEQKVTVKGNVEPEAVFQTVSKTGKKTSYWPVEAEAEPKAEADPKVETVTETKTEAETKTEAKVDAKADVEPKAAEAETKPSQV
With B7, in test [2], the binding entry is reported as “binds”.

B8: REDUCED HYPEROSMOLALITY-INDUCED [Ca2+] INCREASE 3 (OSCA3), endogenous (protein, UniProt Q9C8G5 1-724)
chain: MEFGSFLVSLGTSFVIFVILMLLFTWLSRKSGNAPIYYPNRILKGLEPWEGTSLTRNPFAWMREALTSSEQDVVNLSGVDTAVHFVFLSTVLGIFACSSLLLLPTLLPLAATDNNIKNTKNATDTTSKGTFSQLDNLSMANITKKSSRLWAFLGAVYWISLVTYFFLWKAYKHVSSLRAQALMSADVKPEQFAILVRDMPAPPDGQTQKEFIDSYFREIYPETFYRSLVATENSKVNKIWEKLEGYKKKLARAEAILAATNNRPTNKTGFCGLVGKQVDSIEYYTELINESVAKLETEQKAVLAEKQQTAAVVFFTTRVAAASAAQSLHCQMVDKWTVTEAPEPRQLLWQNLNIKLFSRIIRQYFIYFFVAVTILFYMIPIAFVSAITTLKNLQRIIPFIKPVVEITAIRTVLESFLPQIALIVFLAMLPKLLLFLSKAEGIPSQSHAIRAASGKYFYFSVFNVFIGVTLAGTLFNTVKDIAKNPKLDMIINLLATSLPKSATFFLTYVALKFFIGYGLELSRIIPLIIFHLKKKYLCKTEAEVKEAWYPGDLSYATRVPGDMLILTITFCYSVIAPLILIFGITYFGLGWLVLRNQALKVYVPSYESYGRMWPHIHQRILAALFLFQVVMFGYLGAKTFFYTALVIPLIITSLIFGYVCRQKFYGGFEHTALEVACRELKQSPDLEEIFRAYIPHSLSSHKPEEHEFKGAMSRYQDFNAIAGV
As to B8, the binding result in test [2] is “binds”.

B9: LEA5 (ERD10), endogenous (protein, UniProt P42759 1-260)
chain: MAEEYKNTVPEQETPKVATEESSAPEIKERGMFDFLKKKEEVKPQETTTLASEFEHKTQISEPESFVAKHEEEEHKPTLLEQLHQKHEEEEENKPSLLDKLHRSNSSSSSSSDEEGEDGEKKKKEKKKKIVEGDHVKTVEEENQGVMDRIKEKFPLGEKPGGDDVPVVTTMPAPHSVEDHKPEEEEKKGFMDKIKEKLPGHSKKPEDSQVVNTTPLVETATPIADIPEEKKGFMDKIKEKLPGYHAKTTGEEEKKEKVSD
Consider B9, for which the binding entry in test [3] is listed as “binds”.
